The target of experiment [1] is nucleolin (NCL), endogenous in 293T cells (human (endogenous in 293T)) (UniProt P19338). Description: co-IP; 293T cells transfected with MYC-tagged TRIM21, siNC or si-circ0006646, treated with 10 µM MG132 for 6 h; lysate incubated with anti-NCL, then protein A/G magnetic beads; blots for MYC and NCL.
Experiment [2] concerns the target nucleolin (NCL) (human (endogenous in HCCLM3)) (UniProt P19338). Nature of the experiment: co-IP; HCCLM3 lysate incubated with anti-NCL or anti-IgG, then protein A/G magnetic beads; blots for TRIM21 and NCL.

Protein sequences, listed by entry. Tags and fused reporters are not part of them.
UniProt P19338: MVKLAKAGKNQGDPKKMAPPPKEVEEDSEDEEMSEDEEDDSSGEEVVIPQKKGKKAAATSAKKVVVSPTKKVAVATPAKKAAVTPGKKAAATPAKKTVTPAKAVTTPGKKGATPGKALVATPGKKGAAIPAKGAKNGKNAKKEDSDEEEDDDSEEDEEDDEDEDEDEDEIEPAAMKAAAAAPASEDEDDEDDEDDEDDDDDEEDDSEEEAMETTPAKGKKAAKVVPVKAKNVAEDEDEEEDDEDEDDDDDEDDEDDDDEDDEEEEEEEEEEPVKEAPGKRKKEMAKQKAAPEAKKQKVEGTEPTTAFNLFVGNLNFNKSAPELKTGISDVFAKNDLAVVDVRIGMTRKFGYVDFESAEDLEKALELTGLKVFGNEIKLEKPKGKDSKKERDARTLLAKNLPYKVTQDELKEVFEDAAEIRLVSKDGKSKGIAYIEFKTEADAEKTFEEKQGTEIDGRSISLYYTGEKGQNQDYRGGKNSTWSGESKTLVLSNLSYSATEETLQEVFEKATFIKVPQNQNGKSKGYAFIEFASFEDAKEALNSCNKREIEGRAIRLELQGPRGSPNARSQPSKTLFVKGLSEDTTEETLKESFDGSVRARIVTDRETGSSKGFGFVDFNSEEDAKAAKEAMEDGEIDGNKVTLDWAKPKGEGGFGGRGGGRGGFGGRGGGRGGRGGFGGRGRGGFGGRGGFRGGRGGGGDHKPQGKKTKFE
UniProt P19474: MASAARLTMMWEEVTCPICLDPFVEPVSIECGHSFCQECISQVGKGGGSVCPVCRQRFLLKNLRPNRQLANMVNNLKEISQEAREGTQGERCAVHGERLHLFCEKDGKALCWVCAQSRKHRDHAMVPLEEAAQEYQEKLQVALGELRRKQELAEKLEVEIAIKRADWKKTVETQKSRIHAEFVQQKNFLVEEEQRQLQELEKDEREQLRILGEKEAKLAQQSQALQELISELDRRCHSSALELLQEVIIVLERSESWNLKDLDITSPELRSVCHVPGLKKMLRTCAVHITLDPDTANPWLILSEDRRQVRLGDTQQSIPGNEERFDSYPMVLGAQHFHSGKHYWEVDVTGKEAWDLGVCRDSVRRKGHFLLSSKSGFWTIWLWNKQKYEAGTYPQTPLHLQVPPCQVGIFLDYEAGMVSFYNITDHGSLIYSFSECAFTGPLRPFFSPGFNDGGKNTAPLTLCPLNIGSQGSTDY

Results are given in words; binding and its absence hold for the method and conditions named. Binding seen in cells or lysates may run through a third protein. Some results given as binding are weak or reduced against the parent protein; the word gives no strength.

On to “MYC-tagged TRIM21 (from UniProt P19474 1-475)”, for which, in experiment [1], the binding result is on record as “binds”. Consider “tripartite motif-containing 21 (TRIM21) (from UniProt P19474 1-475)”, for which the binding entry in experiment [2] is reported as “binds”.

These data come from article PMC11040345.
